Measurements from patent US20180360993A1.
Results are given in words; binding and its absence hold for the method and conditions named. Some binding calls cover weakened binding; strength is not graded here. Tags and fused reporters may be left off the sequences shown.

By UniProt entry, the sequences of proteins in these tests, tags left out. Residues count along the entry.
UniProt Q9QUK6, residues 26-835: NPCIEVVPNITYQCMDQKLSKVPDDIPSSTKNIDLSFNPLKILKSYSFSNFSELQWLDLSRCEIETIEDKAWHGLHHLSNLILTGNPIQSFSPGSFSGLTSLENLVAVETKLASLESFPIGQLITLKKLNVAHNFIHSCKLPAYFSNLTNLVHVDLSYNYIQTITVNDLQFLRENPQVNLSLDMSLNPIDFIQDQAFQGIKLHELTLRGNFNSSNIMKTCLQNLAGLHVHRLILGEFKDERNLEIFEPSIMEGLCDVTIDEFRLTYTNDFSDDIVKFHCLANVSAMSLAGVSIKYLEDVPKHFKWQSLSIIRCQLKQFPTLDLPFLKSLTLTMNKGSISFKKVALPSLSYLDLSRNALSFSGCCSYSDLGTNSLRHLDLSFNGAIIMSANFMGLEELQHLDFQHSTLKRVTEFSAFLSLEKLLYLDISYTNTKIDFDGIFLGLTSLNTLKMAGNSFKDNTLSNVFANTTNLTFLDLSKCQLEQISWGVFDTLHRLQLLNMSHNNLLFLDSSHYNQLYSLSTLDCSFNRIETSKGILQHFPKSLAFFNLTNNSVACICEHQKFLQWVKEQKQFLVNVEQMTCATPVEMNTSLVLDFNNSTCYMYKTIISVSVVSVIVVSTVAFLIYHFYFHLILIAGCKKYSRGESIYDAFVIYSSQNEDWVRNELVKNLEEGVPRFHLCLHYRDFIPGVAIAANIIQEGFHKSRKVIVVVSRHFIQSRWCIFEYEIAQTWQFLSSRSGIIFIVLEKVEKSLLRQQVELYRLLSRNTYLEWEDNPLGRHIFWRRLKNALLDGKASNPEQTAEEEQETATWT

Tests used:
[1] = target: TLR4 on primary peritoneal macrophages of wild type mice (mouse) (UniProt Q9QUK6); experiment: flow cytometry on peritoneal macrophages, 2 µg/ml AIBP, FITC anti-His detection
[2] = target: TLR4 on primary peritoneal macrophages of wild type mice (mouse) (UniProt Q9QUK6); experiment: flow cytometry on WT and Tlr4-/- peritoneal macrophages, FITC anti-His detection (FIG. 11C)

B1: recombinant human AIBP with N-terminal His-tag (baculovirus/insect cell system) (protein, not shown: small tags and cut ends)
chain: QTIACRSGPTWWGPQRLNSGGRWDSEVMASTVVKYLSQEEAQAVDQELFNEYQFSVDQLMELAGLSCATAIAKAYPPTSMSRSPPTVLVICGPGNNGGDGLVCARHLKLFGYEPTIYYPKRPNKPLFTALVTQCQKMDIPFLGEMPAEPMTIDELYELVVDAIFGFSFKGDVREPFHSILSVLKGLTVPIASIDIPSGWDVEKGNAGGIQPDLLISLTAPKKSATQFTGRYHYLGGRFVPPALEKKYQLNLPPYPDTECVYRLQ
binding [1]: binds
binding [2]: binds
